Patent US20200046796A1 (TECHNION RESEARCH AND DEVELOPMENT FOUNDATION, published 2020)
These are yes or no findings as the source states them, for the method shown. Binding seen in cells or lysates may run through a third protein. Some entries that bind do so weakly or less than the wild type. Each block holds one molecule with its values, some of them ahead of it.

Sequences of proteins named here, by UniProt entry; tags and fusion partners are left off. Residues count along the entry.
UniProt P26231, residues 2-906: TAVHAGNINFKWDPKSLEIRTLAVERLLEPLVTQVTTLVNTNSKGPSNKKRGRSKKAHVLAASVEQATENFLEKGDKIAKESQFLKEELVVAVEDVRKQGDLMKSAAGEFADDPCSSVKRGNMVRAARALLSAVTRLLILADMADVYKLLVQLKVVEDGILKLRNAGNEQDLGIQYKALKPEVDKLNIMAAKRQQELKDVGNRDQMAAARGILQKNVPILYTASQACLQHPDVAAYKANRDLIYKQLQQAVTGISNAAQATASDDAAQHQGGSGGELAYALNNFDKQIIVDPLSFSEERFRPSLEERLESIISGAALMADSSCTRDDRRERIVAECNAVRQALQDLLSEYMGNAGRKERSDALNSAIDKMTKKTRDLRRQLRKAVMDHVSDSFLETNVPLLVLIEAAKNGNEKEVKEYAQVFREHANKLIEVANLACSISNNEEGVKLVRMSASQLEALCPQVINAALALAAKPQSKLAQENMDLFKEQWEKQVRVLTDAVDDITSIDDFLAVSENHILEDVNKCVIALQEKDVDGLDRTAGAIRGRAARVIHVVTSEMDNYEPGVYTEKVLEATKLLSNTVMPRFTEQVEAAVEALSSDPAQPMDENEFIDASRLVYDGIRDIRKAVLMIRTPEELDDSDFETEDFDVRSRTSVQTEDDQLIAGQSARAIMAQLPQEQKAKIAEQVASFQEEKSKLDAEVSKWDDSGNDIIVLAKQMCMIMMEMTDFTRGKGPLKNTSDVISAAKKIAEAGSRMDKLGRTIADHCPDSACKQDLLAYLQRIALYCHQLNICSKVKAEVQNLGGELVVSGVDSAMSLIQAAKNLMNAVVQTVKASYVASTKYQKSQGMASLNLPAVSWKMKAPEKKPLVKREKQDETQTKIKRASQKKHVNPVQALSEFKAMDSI

Experiments:
[1] = target: T1, activated (cleaved) Caspase-3 (endogenous, from mouse dorsal skin) (mouse) (UniProt P70677); experiment: co-immunoprecipitation of endogenous proteins from mouse skin, Western blot
T1 sequence (looked up): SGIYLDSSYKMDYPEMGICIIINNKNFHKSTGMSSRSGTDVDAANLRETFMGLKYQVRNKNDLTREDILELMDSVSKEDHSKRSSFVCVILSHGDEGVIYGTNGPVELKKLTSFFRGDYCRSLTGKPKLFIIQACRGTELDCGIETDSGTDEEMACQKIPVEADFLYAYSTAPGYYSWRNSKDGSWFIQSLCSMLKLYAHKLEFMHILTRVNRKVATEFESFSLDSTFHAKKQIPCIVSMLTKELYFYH

[2] = target: T1, activated (cleaved) Caspase-3 (endogenous, from mouse dorsal skin) (mouse); experiment: co-immunoprecipitation of endogenous proteins from mouse skin
[3] = target: α-Catenin (endogenous, from mouse dorsal skin) (mouse) (UniProt P26231); experiment: co-immunoprecipitation and cleavage assays, summed up

binding [1]: binds
binding [2]: binds
Molecule: α-Catenin (endogenous, from mouse dorsal skin) (from UniProt P26231 2-906)

binding [3]: binds
B1: activated (cleaved) Caspase-3 (endogenous, from mouse dorsal skin) (enzyme, UniProt P70677 29-277, looked up)
chain: T1 sequence (looked up)
notes: also called CP3
